# Data as given in PubChem BioAssay AID1224828 (NIAID, 2016).
# Screen: 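Knock-downs that increase or decrease LPS-induced p65 nuclear translocation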 (primary screen)
# Cells: mouse RAW264.7 G9 macrophage reporter cells (GFP-p65, Tnf promoter-mCherry)
# Reagent: siRNA pool against mouse genes, 100 nM
# Duration: 2 days siRNA transfection, then 40 min LPS before fixation
# Challenge: LPS (Salmonella minnesota R595) at 10 ng/ml
# Measured: 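Imaged p65 nuclear translocation ratio, normalised to the plate median, converted to robust z-scores and averaged across two replicates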
# Reading the numbers: p65 translocation robust z-score: higher = more nuclear NF-kappaB p65 after LPS than the plate median; nuclear/cytoplasmic p65 ratio: higher = more nuclear NF-kappaB p65
# Rule for the call: 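Active if robust z is above 3.3 (negative regulators) or below -1.56, the Tlr4 control median (positive regulators); activity score 50 or more; control wells not called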
# Meaning of the calls: active = hit (p65 shift raised or lowered); inactive = no clear change
# The deposit covers about 17,000 reagents; this is a part drawn at random. 762 of all reagents (4.5%) count as active. 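Active calls include both raised and lowered p65 entry, mostly lowered; wells with fewer than 50 cells lack a z-score.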 Raw values are not corrected between plates. Unmarked entries are inactive. The numbers tell different reagents against one gene apart. No sequences are given here.
gene,pool no.,p65 translocation robust z-score,"nuclear/cytoplasmic p65 ratio, rep 1","nuclear/cytoplasmic p65 ratio, rep 2",low cell count flag
Gpr139,1,-0.73,1.36,1.52,enough cells to score
Dhh,1,1.67,1.74,1.56,enough cells to score
Edem2,1,-0.19,1.59,1.58,enough cells to score
Atl1,1,-0.44,1.54,1.44,enough cells to score
Pam16,1,1.11,1.86,1.73,enough cells to score
Azin2,1,-0.33,1.19,1.55,enough cells to score
Gclc,1,-0.48,1.36,1.32,enough cells to score
Aldh6a1,1,0.17,1.79,1.51,enough cells to score
Galnt13,1,-0.07,1.57,1.36,enough cells to score
Pcdh10,1,-0.67,1.32,1.17,enough cells to score
Myct1,1,0.34,1.84,1.64,enough cells to score
Irx4,1,-0.72,1.35,1.31,enough cells to score
Mtx1,1,-0.29,1.47,1.25,enough cells to score
Ehmt2,1,-1.23,,1.42,enough cells to score
Ptpn2,1,0.51,1.52,1.52,enough cells to score
Defb5,1,0.74,1.61,1.72,enough cells to score
Myl3,1,-1.34,1.25,1.19,enough cells to score
Guca1a,1,-0.24,1.39,1.35,enough cells to score
Ryr1,1,-0.52,1.48,1.41,enough cells to score
Sbds,1,-0.83,1.49,1.32,enough cells to score
Tpr,1,-1.05,1.34,1.38,enough cells to score
Eno3,1,0.23,1.43,1.46,enough cells to score
Dmp1,1,,1.03,1.17,fewer than 50 cells per well; well left out of scoring
Fuom,1,-0.99,1.25,1.31,enough cells to score
Mterf1a,1,-0.5,1.56,1.52,enough cells to score
Bbx,1,,1.31,1.42,fewer than 50 cells per well; well left out of scoring
Prpf8,1,-0.05,1.38,1.5,enough cells to score
Or1j14,1,-1.03,1.41,1.33,enough cells to score
Ptk6,1,-1.24,1.49,1.22,enough cells to score
4933409K07Rik,1,,1.48,1.68,fewer than 50 cells per well; well left out of scoring
Tnfrsf4,1,-0.22,1.48,1.41,enough cells to score
Nos3,1,,1.65,1.51,fewer than 50 cells per well; well left out of scoring
Mest,1,1.74,1.66,1.57,enough cells to score
Kcnh8,1,2.15,1.7,1.71,enough cells to score
Abtb2,1,0.13,1.47,1.69,enough cells to score
Crtam,1,0.09,1.45,1.42,enough cells to score
Svil,1,-0.06,1.55,1.53,enough cells to score
Gid4,1,,1.46,1.39,fewer than 50 cells per well; well left out of scoring
Ripor2,1,-0.39,1.38,1.34,enough cells to score
Or9s14,1,0.39,1.8,1.36,enough cells to score
Xpnpep3,1,0.72,1.6,1.43,enough cells to score
Heg1,1,,1.28,1.25,fewer than 50 cells per well; well left out of scoring
Heg1,2,,1.38,1.32,fewer than 50 cells per well; well left out of scoring
A930006J02Rik (retired record),1,-0.06,1.42,1.46,enough cells to score
Or4k51,1,-0.21,1.57,1.37,enough cells to score
Tspan7,1,-0.39,1.5,1.43,enough cells to score
Asns,1,0.88,1.79,1.71,enough cells to score
Xlr4c,1,,0,1.51,fewer than 50 cells per well; well left out of scoring
Isoc1,1,,1.3,1.45,fewer than 50 cells per well; well left out of scoring
Hsd17b13,1,-1.05,1.43,1.53,enough cells to score
Hspa1a,1,1.07,1.56,1.53,enough cells to score
Or6c65,1,,1.33,1.18,fewer than 50 cells per well; well left out of scoring
Bcl3,1,0.75,1.68,1.77,enough cells to score
Pkp2,1,-1.01,1.38,1.54,enough cells to score
Bbs1,1,2.07,1.94,1.91,enough cells to score
Flvcr2,1,0.72,1.68,1.97,enough cells to score
Srpk2,1,,1.7,1.55,fewer than 50 cells per well; well left out of scoring
Saxo4,1,,1.47,1.21,fewer than 50 cells per well; well left out of scoring
Actr5,1,0.13,1.68,1.64,enough cells to score

In a second layout: 4 of the entries above
| gene | pool no. | p65 translocation robust z-score | nuclear/cytoplasmic p65 ratio, rep 1 | nuclear/cytoplasmic p65 ratio, rep 2 | low cell count flag |
| --- | --- | --- | --- | --- | --- |
| Kcnh8 | 1 | 2.15 | 1.7 | 1.71 | enough cells to score |
| Abtb2 | 1 | 0.13 | 1.47 | 1.69 | enough cells to score |
| Crtam | 1 | 0.09 | 1.45 | 1.42 | enough cells to score |
| Svil | 1 | -0.06 | 1.55 | 1.53 | enough cells to score |
